Assay results reported in doi:10.1101/2024.05.31.596824.
These are yes or no findings as the source states them, for the method shown. For part of these data: Binding seen in cells or lysates may run through a third protein. Some binding calls cover weakened binding; strength is not graded here.

The chains behind the UniProt entries cited, without tags or fusion partners. Residues count along the entry.
UniProt O15550, whole entry: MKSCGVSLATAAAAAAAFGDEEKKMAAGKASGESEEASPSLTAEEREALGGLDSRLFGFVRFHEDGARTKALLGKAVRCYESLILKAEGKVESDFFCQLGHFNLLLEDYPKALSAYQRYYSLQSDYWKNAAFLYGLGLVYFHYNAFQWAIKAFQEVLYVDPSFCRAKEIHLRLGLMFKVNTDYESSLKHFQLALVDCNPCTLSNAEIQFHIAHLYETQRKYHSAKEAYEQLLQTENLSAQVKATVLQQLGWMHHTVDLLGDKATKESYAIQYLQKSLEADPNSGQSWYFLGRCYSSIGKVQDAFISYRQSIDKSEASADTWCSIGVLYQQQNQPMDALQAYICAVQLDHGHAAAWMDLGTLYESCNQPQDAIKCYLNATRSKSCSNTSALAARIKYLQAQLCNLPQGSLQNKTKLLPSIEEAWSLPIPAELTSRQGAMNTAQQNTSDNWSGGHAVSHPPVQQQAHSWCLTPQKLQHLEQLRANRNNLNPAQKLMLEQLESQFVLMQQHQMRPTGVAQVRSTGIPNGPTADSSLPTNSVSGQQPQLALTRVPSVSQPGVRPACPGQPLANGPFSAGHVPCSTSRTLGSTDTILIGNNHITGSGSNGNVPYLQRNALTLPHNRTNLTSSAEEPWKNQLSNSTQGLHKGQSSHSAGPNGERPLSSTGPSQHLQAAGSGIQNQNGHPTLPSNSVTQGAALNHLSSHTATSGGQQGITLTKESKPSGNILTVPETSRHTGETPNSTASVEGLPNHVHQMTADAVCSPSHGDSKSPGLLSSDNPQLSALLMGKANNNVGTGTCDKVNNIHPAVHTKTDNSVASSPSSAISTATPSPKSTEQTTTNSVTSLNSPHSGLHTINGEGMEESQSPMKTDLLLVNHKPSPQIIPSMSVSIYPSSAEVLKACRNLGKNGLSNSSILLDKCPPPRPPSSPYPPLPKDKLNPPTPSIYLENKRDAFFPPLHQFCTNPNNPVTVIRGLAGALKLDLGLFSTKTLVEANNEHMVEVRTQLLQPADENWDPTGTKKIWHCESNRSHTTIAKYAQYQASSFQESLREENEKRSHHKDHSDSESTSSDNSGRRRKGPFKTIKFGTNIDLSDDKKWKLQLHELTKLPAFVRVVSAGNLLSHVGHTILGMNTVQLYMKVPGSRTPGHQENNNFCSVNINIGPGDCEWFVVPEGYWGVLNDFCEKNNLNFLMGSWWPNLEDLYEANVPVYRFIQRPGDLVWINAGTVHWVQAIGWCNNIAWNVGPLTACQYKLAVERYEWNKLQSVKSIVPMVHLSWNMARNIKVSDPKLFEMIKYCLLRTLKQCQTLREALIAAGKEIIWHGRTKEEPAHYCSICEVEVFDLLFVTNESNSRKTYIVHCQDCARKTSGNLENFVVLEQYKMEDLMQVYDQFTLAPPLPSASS
UniProt O14686, 4507-5537: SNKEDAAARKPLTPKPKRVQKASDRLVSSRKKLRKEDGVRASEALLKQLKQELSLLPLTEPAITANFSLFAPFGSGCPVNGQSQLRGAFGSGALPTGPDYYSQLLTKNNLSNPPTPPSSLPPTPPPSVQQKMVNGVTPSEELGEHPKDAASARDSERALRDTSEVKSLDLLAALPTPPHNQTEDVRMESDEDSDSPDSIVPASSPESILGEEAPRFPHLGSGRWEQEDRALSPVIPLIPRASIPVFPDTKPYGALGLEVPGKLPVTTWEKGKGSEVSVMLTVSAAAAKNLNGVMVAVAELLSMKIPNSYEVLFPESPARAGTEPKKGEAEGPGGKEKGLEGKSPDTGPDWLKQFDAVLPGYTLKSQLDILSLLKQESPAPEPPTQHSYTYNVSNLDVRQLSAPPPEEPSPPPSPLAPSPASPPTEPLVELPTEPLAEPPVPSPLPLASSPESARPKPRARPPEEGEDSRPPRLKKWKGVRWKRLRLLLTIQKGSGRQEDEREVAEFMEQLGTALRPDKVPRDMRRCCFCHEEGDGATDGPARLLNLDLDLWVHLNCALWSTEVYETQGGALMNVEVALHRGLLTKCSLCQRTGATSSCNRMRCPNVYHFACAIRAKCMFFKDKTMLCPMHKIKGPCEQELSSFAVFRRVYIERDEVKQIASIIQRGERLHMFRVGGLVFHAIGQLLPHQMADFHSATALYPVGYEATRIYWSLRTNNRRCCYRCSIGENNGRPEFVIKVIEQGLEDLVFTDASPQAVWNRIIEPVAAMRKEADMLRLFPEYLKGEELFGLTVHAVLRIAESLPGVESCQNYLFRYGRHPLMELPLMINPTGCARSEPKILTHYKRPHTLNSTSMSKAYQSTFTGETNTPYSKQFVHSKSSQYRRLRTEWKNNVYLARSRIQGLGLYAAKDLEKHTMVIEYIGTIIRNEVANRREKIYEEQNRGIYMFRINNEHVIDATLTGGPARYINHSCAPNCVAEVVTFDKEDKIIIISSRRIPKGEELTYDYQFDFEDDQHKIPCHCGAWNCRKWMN
UniProt P09874, whole entry: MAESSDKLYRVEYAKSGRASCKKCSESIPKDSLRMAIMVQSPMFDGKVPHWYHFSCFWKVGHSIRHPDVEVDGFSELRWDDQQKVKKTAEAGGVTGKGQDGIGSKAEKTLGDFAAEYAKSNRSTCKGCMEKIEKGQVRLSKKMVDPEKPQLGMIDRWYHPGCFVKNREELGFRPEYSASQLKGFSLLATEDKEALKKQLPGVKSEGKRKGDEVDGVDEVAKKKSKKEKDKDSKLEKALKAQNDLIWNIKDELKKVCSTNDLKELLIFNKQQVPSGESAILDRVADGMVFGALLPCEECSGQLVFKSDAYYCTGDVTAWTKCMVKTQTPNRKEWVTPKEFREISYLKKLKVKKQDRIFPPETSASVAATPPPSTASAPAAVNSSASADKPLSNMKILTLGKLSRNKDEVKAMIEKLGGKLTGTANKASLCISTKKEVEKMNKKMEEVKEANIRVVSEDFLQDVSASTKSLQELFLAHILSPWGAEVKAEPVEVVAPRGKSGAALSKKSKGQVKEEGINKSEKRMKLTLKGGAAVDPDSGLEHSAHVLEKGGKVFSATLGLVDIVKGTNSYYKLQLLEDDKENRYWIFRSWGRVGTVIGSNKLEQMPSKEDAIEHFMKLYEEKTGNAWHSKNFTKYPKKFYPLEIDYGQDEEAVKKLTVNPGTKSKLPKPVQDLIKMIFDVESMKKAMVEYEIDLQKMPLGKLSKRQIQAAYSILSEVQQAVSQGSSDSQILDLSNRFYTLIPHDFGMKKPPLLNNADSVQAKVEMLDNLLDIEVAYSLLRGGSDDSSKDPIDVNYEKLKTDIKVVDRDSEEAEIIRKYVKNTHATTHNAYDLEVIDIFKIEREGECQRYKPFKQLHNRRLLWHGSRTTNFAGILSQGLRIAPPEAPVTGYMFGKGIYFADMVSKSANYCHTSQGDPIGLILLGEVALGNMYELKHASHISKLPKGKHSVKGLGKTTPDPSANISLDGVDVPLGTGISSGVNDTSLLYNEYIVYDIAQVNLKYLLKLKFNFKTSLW

How the values were obtained:
[1] = target: 3XHA-tagged full-length UTX (3XHA-UTX) (UniProt O15550); assay: co-IP
[2] = target: HA-tagged UTX (HA-UTX), full-length (UniProt O15550); assay: pull-down

Substance	binding [1]	binding [2]
Flag-MLL4-C (C-terminal region, amino acids 4507-5537) (from UniProt O14686 4507-5537) (domain or fragment)	binds	
Flag-tagged PARP-1 (F-PARP-1) (from UniProt P09874 1-1014)		binds
PARP-1 (from UniProt P09874 1-1014)	binds	
